Experimental data as given in PubChem BioAssay (EPA / NIEHS).
Inconclusive means that the source gave no clear call. Such entries were picked first, then a sample of the others. A potency beside an inconclusive call is a rough fit, not a confirmed value. Calls of active or inactive are those of the source. Rule for the calls: active = hit-call score of the fitted dose curve at least 0.9, where 1 is the maximum; inconclusive = response in the unintended direction; inactive = score below 0.9.

Amino acid sequences for entries named in this document (tags omitted). A change or cut given only in a name is not applied to a line headed by its entry.
UniProt Q96RI1: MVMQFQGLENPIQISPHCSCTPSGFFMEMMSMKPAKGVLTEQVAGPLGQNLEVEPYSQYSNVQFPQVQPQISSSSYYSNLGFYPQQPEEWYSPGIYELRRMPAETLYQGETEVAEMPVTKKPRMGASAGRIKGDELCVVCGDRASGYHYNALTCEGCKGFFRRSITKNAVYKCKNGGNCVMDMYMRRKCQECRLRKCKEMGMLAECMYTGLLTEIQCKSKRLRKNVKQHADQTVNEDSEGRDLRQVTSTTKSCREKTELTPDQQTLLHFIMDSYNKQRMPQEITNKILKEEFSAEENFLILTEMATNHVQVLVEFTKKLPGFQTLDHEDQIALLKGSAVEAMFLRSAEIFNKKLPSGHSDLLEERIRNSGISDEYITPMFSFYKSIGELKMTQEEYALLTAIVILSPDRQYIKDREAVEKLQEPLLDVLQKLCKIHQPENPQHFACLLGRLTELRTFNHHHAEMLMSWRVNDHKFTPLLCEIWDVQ

Tests used:
[1] = target: Bile acid receptor (Homo sapiens) (UniProt Q96RI1); experiment: OT_FXR_FXRSRC1_1440: Odyssey Thera (OT) 24-hour HEK293T Protein-Complementation Assay for Farnesoid X receptor/SRC-1 Co-activator (AID 2283384)
In short: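 Single endpoint, analysed for increased fluorescence against DMSO controls. HEK293T cells carrying FXR and SRC-1 linked to complementary reporter halves were exposed to chemicals for 24 h before reading.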

[2] = target: Bile acid receptor (Homo sapiens) (UniProt Q96RI1); experiment: OT_FXR_FXRSRC1_0480: Odyssey Thera (OT) 8-hour HEK293T Protein-Complementation Assay for Farnesoid X receptor/SRC-1 Co-activator (AID 2283383)
In short: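 Readings were taken 8 h after dosing HEK293T cells in a split-reporter complementation format pairing FXR with SRC-1. Increased fluorescence relative to DMSO-treated wells defined activity.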

## CCCCCCCCCCCCN1CCCCCC1=O
[1]
  AC50: inconclusive: 91.6 µM

## CCCCCC(=O)CC
[2]
  AC50: inconclusive: 50.5 µM
[1]
  AC50: inconclusive: 6.22 µM

## CCCC/C=C\CCCCCCCCCC=O
[1]
  AC50: inconclusive: 12.3 µM

## C=C1C[C@]23C[C@@]1(O)CC[C@H]2[C@@]12C=C[C@H](O)[C@@](C)(C(=O)O1)[C@H]2[C@@H]3C(=O)O
[1]
  AC50: inconclusive: 8.06 µM

## COc1ccc([N+](=O)[O-])cc1N
[1]
  outcome: inactive

## F[Si-2](F)(F)(F)(F)F
[1]
  AC50: inconclusive: 6.32 µM

## COC(=O)[C@]1(C)CCC[C@@]2(C)[C@H]1CC=C1C=C(C(C)C)CC[C@@H]12
[1]
  AC50: active: 12.8 µM

## CCCCCCCCCC(=O)OC
[1]
  outcome: inactive

## Cc1cc(=O)oc2cc(N(C)C)ccc12
[1]
  AC50: active: 50 µM

## CC(C)CC(C)CC(O)CC(C)C (stereo unspecified)
[1]
  outcome: inactive

## CCc1cc(C(C)(C)C)c(O)c(C(C)(C)C)c1
[1]
  outcome: inactive

## CCCCC(CC)COS(=O)(=O)O (stereo unspecified)
[1]
  AC50: inconclusive: 50 µM

## C=C[Si](OCCOC)(OCCOC)OCCOC
[1]
  AC50: inconclusive: 50 µM

## Nc1cccc(N)c1
[1]
  AC50: active: 78.8 µM

## Nc1ccn([C@@H]2O[C@H](CO)[C@@H](O)[C@@H]2O)c(=O)n1
[1]
  outcome: inactive

## C=C1CC[C@H](O)C/C1=C/C=C1\CCC[C@]2(C)[C@@H]([C@H](C)/C=C/[C@H](C)C(C)C)CC[C@@H]12
[2]
  AC50: active: 36.8 µM
[1]
  AC50: inconclusive: 89.8 µM

## CC(C)=CCC/C(C)=C/CO
[1]
  AC50: inconclusive: 50 µM

## CCCCCCCCN1CCCC1=O
[1]
  outcome: inactive

## COC(=O)CSc1cc(N=c2sc(=O)n3n2CCCC3)c(F)cc1Cl
[1]
  AC50: inconclusive: 0.559 µM
